The source of these data is publication PMC11970909.

The chains behind the UniProt entries cited, without tags or fusion partners.
UniProt Q9CWW7: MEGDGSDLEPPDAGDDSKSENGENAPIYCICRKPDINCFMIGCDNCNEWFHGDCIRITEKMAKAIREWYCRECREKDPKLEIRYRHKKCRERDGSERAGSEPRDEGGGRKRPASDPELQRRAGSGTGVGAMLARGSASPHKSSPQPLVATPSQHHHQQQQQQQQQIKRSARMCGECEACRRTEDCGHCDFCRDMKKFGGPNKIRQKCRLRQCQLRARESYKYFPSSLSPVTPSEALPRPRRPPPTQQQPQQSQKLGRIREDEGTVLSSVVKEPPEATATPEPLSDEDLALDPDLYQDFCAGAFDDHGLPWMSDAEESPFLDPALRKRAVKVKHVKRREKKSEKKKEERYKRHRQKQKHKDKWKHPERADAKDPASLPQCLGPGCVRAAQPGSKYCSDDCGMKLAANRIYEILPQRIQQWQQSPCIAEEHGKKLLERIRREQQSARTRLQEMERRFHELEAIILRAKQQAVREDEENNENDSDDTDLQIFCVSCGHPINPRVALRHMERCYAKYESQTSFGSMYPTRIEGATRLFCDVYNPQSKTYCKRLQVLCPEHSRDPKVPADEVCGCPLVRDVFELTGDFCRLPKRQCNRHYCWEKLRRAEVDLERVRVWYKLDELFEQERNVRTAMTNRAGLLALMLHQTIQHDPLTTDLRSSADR

Results are given in words; binding and its absence hold for the method and conditions named. In cells and extracts the contact can be indirect. Some entries that bind do so weakly or less than the wild type.

Test [1] concerns the target T1, FOXP3 (exogenous, expression construct) (UniProt Q99JB6).
T1 sequence: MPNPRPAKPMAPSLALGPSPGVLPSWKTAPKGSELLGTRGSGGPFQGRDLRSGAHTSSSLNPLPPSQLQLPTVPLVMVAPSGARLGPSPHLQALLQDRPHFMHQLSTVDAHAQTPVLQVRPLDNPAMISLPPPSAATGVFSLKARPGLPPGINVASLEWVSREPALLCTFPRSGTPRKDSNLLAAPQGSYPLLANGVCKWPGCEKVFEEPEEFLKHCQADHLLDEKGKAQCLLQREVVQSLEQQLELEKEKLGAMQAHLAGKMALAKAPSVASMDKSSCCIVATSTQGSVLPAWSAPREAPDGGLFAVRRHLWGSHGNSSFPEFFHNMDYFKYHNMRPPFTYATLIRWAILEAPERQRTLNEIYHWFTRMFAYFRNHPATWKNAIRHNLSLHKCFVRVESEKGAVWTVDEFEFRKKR
Description: co-IP; HEK 293T cells transiently transfected with expression constructs; lysate (NETN300 buffer) on anti-FLAG M2 beads or anti-HA beads, 4°C overnight; washed with 100 mM NaCl IP buffer; western blot with anti-Flag and anti-HA. In general terms: Immunoblotting shows a protein as a band on a membrane.

For test [2], the target named is T2, FOXP3 (mouse (endogenous in Treg cells)) (UniProt Q99JB6).
T2 sequence: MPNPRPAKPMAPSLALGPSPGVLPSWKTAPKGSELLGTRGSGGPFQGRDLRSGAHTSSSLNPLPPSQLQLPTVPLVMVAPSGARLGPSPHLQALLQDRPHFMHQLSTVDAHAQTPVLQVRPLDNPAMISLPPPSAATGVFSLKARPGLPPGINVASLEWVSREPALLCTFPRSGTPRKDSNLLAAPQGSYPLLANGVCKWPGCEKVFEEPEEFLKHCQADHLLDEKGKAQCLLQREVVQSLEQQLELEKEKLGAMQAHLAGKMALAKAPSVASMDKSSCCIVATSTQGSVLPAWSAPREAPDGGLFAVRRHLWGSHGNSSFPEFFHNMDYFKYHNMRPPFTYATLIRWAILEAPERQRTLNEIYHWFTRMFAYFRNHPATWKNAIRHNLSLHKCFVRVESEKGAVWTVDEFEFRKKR
Description: co-IP; endogenous proteins, Treg cell lysates (NETN300 buffer, 300 mM NaCl, 0.5% NP-40, pH 8.0); protein G magnetic beads with anti-CXXC1 or anti-FOXP3 antibody, 4°C overnight; washed with 100 mM NaCl IP buffer; forward and reverse; western blot.

Test [3] addresses CXXC-finger protein 1 (mouse (endogenous in Treg cells)) (UniProt Q9CWW7). The description is as above.
The target of test [4] is CXXC1 (exogenous, expression construct) (UniProt Q9CWW7). Description: co-IP; HEK 293T cells transiently transfected with expression constructs; lysate (NETN300 buffer) on anti-FLAG M2 beads or anti-HA beads, 4°C overnight; washed with 100 mM NaCl IP buffer; western blot with anti-Flag and anti-HA.

Regarding “CXXC1 (exogenous, expression construct) (from UniProt Q9CWW7 1-660)”, the binding result in test [1] is “binds”. For “CXXC-finger protein 1 (from UniProt Q9CWW7 1-660)”, in test [2], the binding entry is “binds”.

B1: FOXP3 (protein, UniProt Q99JB6 1-417)
chain: MPNPRPAKPMAPSLALGPSPGVLPSWKTAPKGSELLGTRGSGGPFQGRDLRSGAHTSSSLNPLPPSQLQLPTVPLVMVAPSGARLGPSPHLQALLQDRPHFMHQLSTVDAHAQTPVLQVRPLDNPAMISLPPPSAATGVFSLKARPGLPPGINVASLEWVSREPALLCTFPRSGTPRKDSNLLAAPQGSYPLLANGVCKWPGCEKVFEEPEEFLKHCQADHLLDEKGKAQCLLQREVVQSLEQQLELEKEKLGAMQAHLAGKMALAKAPSVASMDKSSCCIVATSTQGSVLPAWSAPREAPDGGLFAVRRHLWGSHGNSSFPEFFHNMDYFKYHNMRPPFTYATLIRWAILEAPERQRTLNEIYHWFTRMFAYFRNHPATWKNAIRHNLSLHKCFVRVESEKGAVWTVDEFEFRKKR
Regarding B1, the binding result in test [3] is listed as “binds”.

B2: FOXP3 (exogenous, expression construct) (protein, UniProt Q99JB6 1-417)
chain: MPNPRPAKPMAPSLALGPSPGVLPSWKTAPKGSELLGTRGSGGPFQGRDLRSGAHTSSSLNPLPPSQLQLPTVPLVMVAPSGARLGPSPHLQALLQDRPHFMHQLSTVDAHAQTPVLQVRPLDNPAMISLPPPSAATGVFSLKARPGLPPGINVASLEWVSREPALLCTFPRSGTPRKDSNLLAAPQGSYPLLANGVCKWPGCEKVFEEPEEFLKHCQADHLLDEKGKAQCLLQREVVQSLEQQLELEKEKLGAMQAHLAGKMALAKAPSVASMDKSSCCIVATSTQGSVLPAWSAPREAPDGGLFAVRRHLWGSHGNSSFPEFFHNMDYFKYHNMRPPFTYATLIRWAILEAPERQRTLNEIYHWFTRMFAYFRNHPATWKNAIRHNLSLHKCFVRVESEKGAVWTVDEFEFRKKR
As for B2, the binding entry in test [4] was “binds”.
